This is an account of results in the supplement of paper PMC12067093, “Discovery and optimisation of a covalent ligand for TRIM25 and its application to targeted protein ubiquitination” (Chemical Science, 2025).

Compound in this assay: CC1Cc2ccccc2N1C(=O)C1CCCN(C1)C(=O)CCl (mixture of isomers) [TRIM25 ligand 11 (diastereomer mixture)]
In words: probe-labelled cysteine peptide fold change vs DMSO (competition) (log2 fold change); higher = less target engagement (more negative = stronger competition). As to conditions: THP-1, incubation time: 4 h.

The other results are listed elsewhere or left out.
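Note: competitive chemoproteomic profiling in live THP-1 cells with an iodoacetamide desthiobiotin (IA-DTB) probe, comparing probe-labelled peptide intensities in compound-treated cells against DMSO-treated controls.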

As to “KDELC1_Q6UW63_153_EMNCPETIAQIQR (UniProt Q6UW63)”, the “probe-labelled cysteine peptide fold change” value (10 µM) is -0.0583 and the “probe-labelled cysteine peptide fold change” value (50 µM) is 0.0741.
On to “KDELC1_Q6UW63_257_SNSNIHPIFSWCGSTDSK (UniProt Q6UW63)”, for which the “probe-labelled cysteine peptide fold change” value was 0.0289 (10 µM) and 0.0808 (50 µM).
Regarding “KARS_Q15046_209_GELSIIPYEITLLSPCLHMLPHLHFGLK (UniProt Q15046)”, the “probe-labelled cysteine peptide fold change” value is, setting by setting: (10 µM) -0.0461; (50 µM) -0.178.
For “IVD_P26440_136_ASGAVGLSYGAHSNLCINQLVR (UniProt P26440)” the same measures were 0.0597 and -0.151.
For “KDM3A_Q9Y4C1_467_AGVNSDSPNNCSGK (UniProt Q9Y4C1)” the same measures were 0.0206 and -0.0181.
For the target “KDELC1_Q6UW63_491+493_VEPQTEDDLFPCTCHR (UniProt Q6UW63)”, the “probe-labelled cysteine peptide fold change” value reads like this: (10 µM) 0.345; (50 µM) -0.161.
Take “KIAA0391_O15091_469+493_QASCFFADDISEDDPFLLYATLHSGNHCR (UniProt O15091)”: the “probe-labelled cysteine peptide fold change” value by setting is: (10 µM) 0.122; (50 µM) 0.133.
Regarding “KDM2B_Q8NHM5_651_QCIAPVLPHTAVCLVCGEAGKEDTVEEEEGK (UniProt Q8NHM5)”, the “probe-labelled cysteine peptide fold change” value is -0.06 (10 µM) and -0.275 (50 µM).
As to “ITPK1_Q13572_185_VAHGTNSHEMAIVFNQEGLNAIQPPCVVQNFINHNAVLYK (UniProt Q13572)”, the “probe-labelled cysteine peptide fold change” value reads like this: (10 µM) 0.233; (50 µM) 0.113.
For the target “KDM1A_O60341_573_NGYSCVPVALAEGLDIK (UniProt O60341)”, the “probe-labelled cysteine peptide fold change” value by setting is: (10 µM) 0.00798; (50 µM) -0.00582.
As for “KAT2B_Q92831_100_LGVYSACK (UniProt Q92831)”, the “probe-labelled cysteine peptide fold change” value was found to be 0.0443 (10 µM) and 0.107 (50 µM).
Take “KCMF1_Q9P0J7_9+12_HEGVSCDACLK (UniProt Q9P0J7)”: the “probe-labelled cysteine peptide fold change” value came out at 0.233 (10 µM) and 0.13 (50 µM).
For “KDM2B_Q8NHM5_665_QCIAPVLPHTAVCLVCGEAGKEDTVEEEEGK (UniProt Q8NHM5)” the same measures were -0.162 and -0.101.
